Record: PubChem BioAssay AID602196 (INSERM, 2012)
Purpose: 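Modifiers of cisplatin sensitivity in A549 cells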. System: human A549 lung cancer cells. Reagents: siRNA pair against human genes. Time to read-out: 48 h transfection before cisplatin; time from cisplatin to read-out not stated. Conditions: cisplatin at a dose killing half of control-siRNA cells; exact dose and duration not given. Measurement: 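Shift in cisplatin death relative to control siRNA, from -50 (all cells die) to +50 (no cells die); siRNAs harmful on their own scored 0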. Scale: two-siRNA summed score (-2 to +2): higher = both siRNAs protect from cisplatin killing; -2 means both sensitise; mean protection from cisplatin (shift in death) and protection from cisplatin (shift in death), siRNA C and protection from cisplatin (shift in death), siRNA D: higher = protection from cisplatin killing. Hit rule: 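siRNAs harmful alone (LDH or WST-1) get 0; others get +1 for less and -1 for more cisplatin killing; genes are active when the two siRNAs give the same sign, summing to ±2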. Calls: active = both siRNAs shift cisplatin killing the same way; inactive = no consistent shift, or siRNA harmful alone.
This is a random part of about 23,000 deposited reagents. Over the whole deposit, 455 (2%) got an active call. 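Active includes both protection and sensitisation; some change values fall well beyond the stated -50 to +50 range.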 Entries without a mark were called inactive. The record does not give: the amount of reagent.

gene symbol	two-siRNA summed score (-2 to +2)	mean protection from cisplatin (shift in death) (%)	protection from cisplatin (shift in death), siRNA C (%)	protection from cisplatin (shift in death), siRNA D (%)
ZSCAN23	0	1.3	-4.8	7.4
CIZ1	0	-8.9	-13.4	-4.4
SPPL2B	0	-1.5	5.4	-8.4
ZNF182	0	-5.3	-12.7	2.1
PODNL1	0	-10.7	-18.3	-3.1
IL20RA	0	3	13	-7
CMA1	0	-4.6	-4.2	-5
LOC400145	0	10.9	10.2	11.6
VCL	-1	-21	-25	-16.9
HSD17B14	-1	-29.1	-54	-4.2
LOC203076	0	0.6	2.9	-1.7
LOC402412	0	4.5	6.2	2.8
LOC401720	0	3.6	3.6	3.6
RCOR1	0	4	8.7	-0.6
LOC390633	1	2.1	13.7	-9.6
PRKAG3	1	9.4	21.1	-2.2
HS6ST1P1	1	7.7	19.7	-4.3
CFLAR	0	-12.8	-15.9	-9.7
SEZ6L2	0	15.2	9.9	20.5
CYP2B6	0	-0.3	-17.4	16.8
LRRC47	1	9.7	16.8	2.5
ZNF100	0	19	28.8	9.1
DBI	-1	2.7	16.8	-11.5
NUCB2	2 (active)	18.2	17.9	18.6
LOC439943	0	8	2.9	13.2
RNLS	0	5.5	5.1	5.9
LOC390466	0	8.5	21.3	-4.2
DYNC2I2	0	13.8	9	18.6
SLC16A10	0	10.5	8.1	12.8
GNG3	0	10	24.7	-4.7
LOC441399	0	-2.7	-17.2	11.8
ZNF639	0	10.3	12.8	7.7
ZFP3	-1	-3.7	-12.8	5.4
TRIM69	0	5.9	12.3	-0.4
CCT6A	0	-5.7	-1.7	-9.8
GPR12	0	3.6	-6.1	13.4
LOC391692	1	0.4	-12.3	13.2
ATG16L1	0	2.8	4.8	0.8
GOLGA2P5	0	2.6	4.3	1
ITK	2 (active)	18.1	22.6	13.7
PCDHA10	0	-1.8	10.3	-13.9
AP3B2	0	10.2	16.8	3.6
ZMAT3	0	-4.2	-12.5	4
EXD3	-1	-16.8	-18.4	-15.2
PRY	0	-0.5	2.8	-3.9
CCDC28B	0	3.7	-2.9	10.3
COL18A1-AS1	0	8.2	12.1	4.3
CYCS	0	2.7	8.4	-3.1
CATSPER1	0	12.1	17.1	7.1
EOGT	0	4.7	0	9.4
LINC01521	0	-3.1	-6.8	0.5
MRPL17	0	12.5	13.9	11.2
ZNF362	0	3.1	-6.4	12.5
CD3G	0	-3.6	-4.8	-2.3
ZNF707	0	4.4	1.3	7.4
HMGA1	0	-3.9	8.2	-16.1
LOC400923	0	4.1	6.8	1.4

Records above whose target name starts with E or e:
gene symbol	two-siRNA summed score (-2 to +2)	mean protection from cisplatin (shift in death) (%)	protection from cisplatin (shift in death), siRNA C (%)	protection from cisplatin (shift in death), siRNA D (%)
EXD3	-1	-16.8	-18.4	-15.2
EOGT	0	4.7	0	9.4
